What all share (experiment): DAPPL (digital affinity profiling via proximity ligation, sequencing)
Common to all, as to conditions: 10 mM Tris-HCl pH 7.5, 50 mM NaCl, 1 mM DTT, 4% glycerol, room temperature, 30 min; GST-TFs on glutathione beads, 16-mer random dsDNA library, 0.1% …; high values mean tight binding; double strand, one strand shown; scale: fold enrichment (6-mer frequency, TF over GST control)

The target of test [1] is T1, SPIC (UniProt Q8N5J4).
T1 sequence: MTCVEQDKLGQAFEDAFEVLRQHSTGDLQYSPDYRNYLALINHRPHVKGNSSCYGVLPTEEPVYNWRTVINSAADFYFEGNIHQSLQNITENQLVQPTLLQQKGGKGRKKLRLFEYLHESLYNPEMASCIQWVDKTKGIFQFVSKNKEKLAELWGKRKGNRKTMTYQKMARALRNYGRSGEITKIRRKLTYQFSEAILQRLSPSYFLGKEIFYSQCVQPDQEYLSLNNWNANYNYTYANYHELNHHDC

For test [2], the target named is T2, ELK1 (UniProt P19419).
T2 sequence: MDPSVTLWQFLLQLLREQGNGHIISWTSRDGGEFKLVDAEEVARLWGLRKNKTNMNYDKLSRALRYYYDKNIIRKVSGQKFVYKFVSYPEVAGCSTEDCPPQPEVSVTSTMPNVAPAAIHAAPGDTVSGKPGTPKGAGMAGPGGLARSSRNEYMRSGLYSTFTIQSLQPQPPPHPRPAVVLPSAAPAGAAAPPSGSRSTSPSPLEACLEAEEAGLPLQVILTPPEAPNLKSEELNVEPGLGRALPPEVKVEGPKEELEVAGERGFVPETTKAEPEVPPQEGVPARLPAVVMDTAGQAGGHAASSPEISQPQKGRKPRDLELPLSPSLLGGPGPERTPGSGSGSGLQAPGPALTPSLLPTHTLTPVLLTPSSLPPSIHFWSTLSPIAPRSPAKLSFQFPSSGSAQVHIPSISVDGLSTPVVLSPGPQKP

Test [3] has as its target T3, ETS2 (UniProt P15036).
T3 sequence: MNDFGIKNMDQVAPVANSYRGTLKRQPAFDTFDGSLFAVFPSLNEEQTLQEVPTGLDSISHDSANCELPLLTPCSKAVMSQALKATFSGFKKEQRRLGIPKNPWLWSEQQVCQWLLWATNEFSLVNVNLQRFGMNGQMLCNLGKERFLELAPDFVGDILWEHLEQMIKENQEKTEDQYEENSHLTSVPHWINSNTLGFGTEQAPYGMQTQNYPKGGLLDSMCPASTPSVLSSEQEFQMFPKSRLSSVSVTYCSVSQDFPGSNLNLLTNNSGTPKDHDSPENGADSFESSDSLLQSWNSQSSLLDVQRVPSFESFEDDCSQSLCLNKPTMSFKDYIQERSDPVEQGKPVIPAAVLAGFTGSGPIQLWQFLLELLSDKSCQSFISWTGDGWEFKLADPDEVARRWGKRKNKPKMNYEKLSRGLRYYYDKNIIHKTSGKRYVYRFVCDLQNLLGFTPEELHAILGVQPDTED

In test [4] the target is T4, ETV3 (UniProt P41162-2).
T4 sequence: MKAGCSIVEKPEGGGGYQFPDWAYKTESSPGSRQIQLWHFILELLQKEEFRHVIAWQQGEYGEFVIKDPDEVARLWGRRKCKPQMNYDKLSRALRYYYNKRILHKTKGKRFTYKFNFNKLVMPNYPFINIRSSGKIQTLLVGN

Only a part is listed here, and it is no random draw. At the low end of the ranking, values are background and their order means little.

In the case of ACATCG, in test [1], the binding signal came to 0.862.
The same measure, in the same setting: for ACCATT the value was 0.952.
Take AACTCC: the binding signal in test [1] turned out to be 1.32.
Turning to GTTGTT, the binding signal in test [1] was determined as 0.988.
Same read-out and setting: for AAGTTA the value was 1.27.
On to AAGACT, for which, in test [1], the binding signal was determined as 0.998.
The same measure, in the same setting: in the case of CGGTAT it was 1.08; in that of CAGCGC, 0.863; in that of ACTCAC, 1.25.
The same measure, in the same setting: in the case of ACCTGG it was 1.18; in that of GTACCT, 1.44.
In the case of CCACTC, the binding signal in test [1] came to 1.27.
As to CAAGCA, the binding signal in test [1] was found to be 0.953.
Regarding CTATCC, the binding signal in test [1] turned out to be 1.36.
The same measure, in the same setting: for TTATTC the value was 1.45; for TACAAA, 0.922; for ACGGAA, 1.69.
Still for that read-out and setting: for GGTAAA the value was 0.913; for CCGTCA, 1.13.
On the same count and under the same terms, for TGCGCC the value was 0.85.
Regarding CCCTGA, the binding signal in test [1] turned out to be 0.952.
The same measure, in the same setting: for AAATAG the value was 0.943; for CACATG, 0.98.
ACTATG had a binding signal in test [1] of 1.37.
Same read-out and setting: in the case of ATTGGC it was 0.978; in that of CATATC, 1.23.
TCCTGA registered a binding signal in test [1] of 1.32.
Regarding TCATAT, in test [1], the binding signal was found to be 1.13.
On the same count and under the same terms, for TGACAT the value was 1.07; for ATCACA, 1.09; for ACTATA, 1.26.
Same read-out and setting: in the case of TATGCA it was 1.24; in that of ATAGCC, 0.978.
For TTTCGG, in test [1], the binding signal amounted to 1.05.
In test [1], TCAAGG gave a binding signal of 0.997.
On the same count and under the same terms, for CTAGTA the value was 0.953; for CATTGT, 0.933; for TTCTAC, 1.7.
Take TCTCGT: in test [1], the binding signal is 1.31.
Take CTGGTC: the binding signal in test [2] was 1.23; in test [1], 1.2.
In the same order, the values of ATGTTT are 1.37 and 1.27.
On to CTGACA, for which the binding signal in test [2] is 1.18; in test [1], 1.03.
In the same order, the values of AAACGA are 1.14 and 1.02.
For the sequence CCATAC, the results for the binding signal in test [2] and in test [1] were 1.07 and 1.13, respectively.
In the same order, the values of CCACCT are 1.12 and 1.19.
For CCTGTA, in that order: 1.16 and 1.23.
For AATAAA, in that order: 1.2 and 1.26.
On to CTTTAG, for which the binding signal came out at 1.31 in test [2] and 0.955 in test [1].
For GCTACT, in that order: 1.25 and 1.3.
In the same order, the values of TAGAAG are 1.19 and 1.31.
On to CCTCCT, for which the figures for the binding signal in test [2] and in test [1] were 1.45 and 1.47, respectively.
In the same order, the values of TATCCC are 1.65 and 1.6.
As to ATCAAA, the figures for the binding signal in test [2] and in test [1] were 1.05 and 0.959, respectively.
For GTCCAT, in that order: 1.07 and 1.17.
With AGCTAG, the values for the binding signal in test [2] and in test [1] were 1 and 1.08, respectively.
For GGACAT, the binding signal was found to be 1.19 in test [2] and 1.28 in test [1].
With CGCGTT, the binding signal in test [2] came to 0.941; in test [1], 0.962.
In the same order, the values of GCCTCT are 1.38 and 1.21.
For AGTAAA, in that order: 0.923 and 0.974.
In the same order, the values of ATGGCA are 1.22 and 1.21.
For TAGTGC, the binding signal in test [2] was 1.02; in test [1], 0.883.
With TTCCAA, the binding signal in test [2] is 1.19; in test [1], 1.31.
In the case of ATTGCA, the binding signal is 1.31 in test [2] and 1.1 in test [1].
Take AGCTGC: the binding signal stood at 1.16 in test [2] and 0.932 in test [1].
On to CCACCG, for which the binding signal in test [2] was determined as 0.994; in test [1] it was 0.925.
On to CACCGC, for which the results for the binding signal in test [2] and in test [1] were 1.01 and 0.813, respectively.
In the same order, the values of ATATTC are 1.2 and 1.3.
For CAAAGC, in that order: 1.02 and 0.959.
For CTATGG, in that order: 1.14 and 1.14.
As for TACGGA, the binding signal worked out at 1.25 in test [2] and 1.21 in test [1].
In the same order, the values of ACCTGT are 1.05 and 1.06.
In the same order, the values of CGCACA are 1.08 and 0.951.
In the case of ACAACC, the binding signal in test [2] came out at 1.28; in test [1], 1.19.
For CCTGAC, the binding signal turned out to be 1.57 in test [2] and 1.3 in test [1].
As for CCCCTT, the binding signal amounted to 1.55 in test [2] and 1.56 in test [1].
For ACCATC, the values for the binding signal in test [2] and in test [1] were 1.14 and 1.02, respectively.
As for GTTATC, the binding signal was 0.996 in test [2] and 0.994 in test [1].
Turning to AAGAAC, the binding signal came out at 1.18 in test [2] and 1.24 in test [1].
Consider GCCTGC, for which the binding signal was 1.13 in test [2] and 0.958 in test [1].
For the sequence CCATGG, the binding signal in test [2] came out at 1.05; in test [1], 0.876; in test [3] it was 0.861; in test [4], 0.962.
In the case of CGCCTG, the results for the binding signal in test [2] and in test [1] were 1.17 and 0.902, respectively.
